Consider one substance from paper PMC8717993.

Amino acid sequences for entries named in this document (tags omitted).
UniProt P35259: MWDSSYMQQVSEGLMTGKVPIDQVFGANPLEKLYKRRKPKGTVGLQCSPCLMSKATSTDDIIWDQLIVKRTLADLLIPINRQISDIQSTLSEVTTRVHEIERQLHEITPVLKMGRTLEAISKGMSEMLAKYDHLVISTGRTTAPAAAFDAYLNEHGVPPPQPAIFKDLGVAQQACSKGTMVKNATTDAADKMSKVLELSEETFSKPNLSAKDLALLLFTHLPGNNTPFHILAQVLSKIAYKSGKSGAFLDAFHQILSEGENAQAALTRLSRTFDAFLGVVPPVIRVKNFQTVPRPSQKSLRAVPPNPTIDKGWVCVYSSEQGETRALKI
UniProt P31352: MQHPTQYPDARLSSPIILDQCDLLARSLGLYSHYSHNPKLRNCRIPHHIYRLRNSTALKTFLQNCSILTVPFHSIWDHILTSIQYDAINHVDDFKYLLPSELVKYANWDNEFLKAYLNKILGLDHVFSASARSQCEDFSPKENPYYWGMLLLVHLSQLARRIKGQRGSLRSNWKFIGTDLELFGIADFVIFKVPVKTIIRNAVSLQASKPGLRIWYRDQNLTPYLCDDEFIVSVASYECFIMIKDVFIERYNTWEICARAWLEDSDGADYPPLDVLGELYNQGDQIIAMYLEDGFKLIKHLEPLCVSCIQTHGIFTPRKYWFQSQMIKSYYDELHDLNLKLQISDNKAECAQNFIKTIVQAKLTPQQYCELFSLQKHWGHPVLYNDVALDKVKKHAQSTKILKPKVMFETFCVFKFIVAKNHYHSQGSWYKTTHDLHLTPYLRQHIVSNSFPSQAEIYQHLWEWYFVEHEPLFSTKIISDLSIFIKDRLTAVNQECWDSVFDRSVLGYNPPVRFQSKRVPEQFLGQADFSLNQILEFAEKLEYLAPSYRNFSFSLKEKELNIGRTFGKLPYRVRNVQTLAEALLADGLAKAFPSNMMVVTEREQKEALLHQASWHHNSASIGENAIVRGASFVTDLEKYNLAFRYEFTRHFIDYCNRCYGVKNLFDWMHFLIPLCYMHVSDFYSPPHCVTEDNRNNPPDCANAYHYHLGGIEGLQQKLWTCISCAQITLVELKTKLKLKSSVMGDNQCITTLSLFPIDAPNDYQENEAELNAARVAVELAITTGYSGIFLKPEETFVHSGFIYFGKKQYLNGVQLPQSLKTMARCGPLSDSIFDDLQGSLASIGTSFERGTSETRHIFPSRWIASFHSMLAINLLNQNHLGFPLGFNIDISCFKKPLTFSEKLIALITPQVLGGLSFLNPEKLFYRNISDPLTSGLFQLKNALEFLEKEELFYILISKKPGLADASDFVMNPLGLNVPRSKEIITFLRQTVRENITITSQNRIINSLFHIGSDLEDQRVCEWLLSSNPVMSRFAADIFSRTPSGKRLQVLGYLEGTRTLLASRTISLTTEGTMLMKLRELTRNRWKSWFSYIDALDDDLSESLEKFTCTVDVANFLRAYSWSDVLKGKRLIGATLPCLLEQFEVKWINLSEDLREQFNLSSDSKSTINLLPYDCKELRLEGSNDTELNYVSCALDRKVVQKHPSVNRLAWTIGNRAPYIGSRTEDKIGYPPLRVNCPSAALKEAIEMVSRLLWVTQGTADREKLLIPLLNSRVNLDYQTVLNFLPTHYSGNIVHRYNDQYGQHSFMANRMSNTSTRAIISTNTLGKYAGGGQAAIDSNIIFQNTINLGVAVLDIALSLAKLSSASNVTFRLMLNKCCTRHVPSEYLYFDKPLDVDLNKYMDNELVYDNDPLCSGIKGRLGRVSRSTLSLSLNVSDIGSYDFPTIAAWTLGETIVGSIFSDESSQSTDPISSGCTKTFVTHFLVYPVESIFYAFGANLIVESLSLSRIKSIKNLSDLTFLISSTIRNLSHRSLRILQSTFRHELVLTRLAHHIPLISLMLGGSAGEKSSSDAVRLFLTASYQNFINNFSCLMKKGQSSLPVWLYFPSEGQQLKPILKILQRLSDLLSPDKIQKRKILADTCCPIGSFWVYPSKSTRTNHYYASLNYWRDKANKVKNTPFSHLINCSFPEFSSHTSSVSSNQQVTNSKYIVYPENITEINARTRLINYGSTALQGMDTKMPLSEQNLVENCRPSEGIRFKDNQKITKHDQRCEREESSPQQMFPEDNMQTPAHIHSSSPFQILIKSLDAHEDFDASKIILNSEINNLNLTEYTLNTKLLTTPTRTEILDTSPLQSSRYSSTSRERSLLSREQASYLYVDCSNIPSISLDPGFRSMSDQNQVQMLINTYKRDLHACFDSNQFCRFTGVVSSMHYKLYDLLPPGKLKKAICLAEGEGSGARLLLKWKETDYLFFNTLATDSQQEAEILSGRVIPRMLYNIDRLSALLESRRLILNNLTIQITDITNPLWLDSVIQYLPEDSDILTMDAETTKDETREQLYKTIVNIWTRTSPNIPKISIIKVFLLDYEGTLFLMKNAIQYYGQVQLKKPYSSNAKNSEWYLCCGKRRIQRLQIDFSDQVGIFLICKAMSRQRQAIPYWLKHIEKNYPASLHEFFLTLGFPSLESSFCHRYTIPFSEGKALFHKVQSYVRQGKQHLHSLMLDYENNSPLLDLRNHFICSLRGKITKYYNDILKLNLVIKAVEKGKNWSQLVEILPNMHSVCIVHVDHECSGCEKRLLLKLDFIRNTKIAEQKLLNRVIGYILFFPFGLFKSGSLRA

The assay has as its target Marburg virus (MARV) VP35 (Lake Victoria marburgvirus strain Musoke) (UniProt P35259). Put plainly: pull-down.

These are yes or no findings as the source states them, for the method shown. In cells and extracts the contact can be indirect. Some entries that bind do so weakly or less than the wild type.

For the substance “Marburg virus (MARV) L protein, wild type (from UniProt P31352 1-2331) (enzyme)”, the binding result is “binds”.
